Experimental data: paper PMC5302063, “In vivo mapping of a dynamic ribonucleoprotein granule interactome in early Drosophila embryos” (FEBS Open Bio, 2016)
No constants are given. Whether binding was seen depends on the method and setting. Some binding calls cover weakened binding; strength is not graded here.

Chains of the proteins cited; added tags and fusions are not shown.
UniProt P25823: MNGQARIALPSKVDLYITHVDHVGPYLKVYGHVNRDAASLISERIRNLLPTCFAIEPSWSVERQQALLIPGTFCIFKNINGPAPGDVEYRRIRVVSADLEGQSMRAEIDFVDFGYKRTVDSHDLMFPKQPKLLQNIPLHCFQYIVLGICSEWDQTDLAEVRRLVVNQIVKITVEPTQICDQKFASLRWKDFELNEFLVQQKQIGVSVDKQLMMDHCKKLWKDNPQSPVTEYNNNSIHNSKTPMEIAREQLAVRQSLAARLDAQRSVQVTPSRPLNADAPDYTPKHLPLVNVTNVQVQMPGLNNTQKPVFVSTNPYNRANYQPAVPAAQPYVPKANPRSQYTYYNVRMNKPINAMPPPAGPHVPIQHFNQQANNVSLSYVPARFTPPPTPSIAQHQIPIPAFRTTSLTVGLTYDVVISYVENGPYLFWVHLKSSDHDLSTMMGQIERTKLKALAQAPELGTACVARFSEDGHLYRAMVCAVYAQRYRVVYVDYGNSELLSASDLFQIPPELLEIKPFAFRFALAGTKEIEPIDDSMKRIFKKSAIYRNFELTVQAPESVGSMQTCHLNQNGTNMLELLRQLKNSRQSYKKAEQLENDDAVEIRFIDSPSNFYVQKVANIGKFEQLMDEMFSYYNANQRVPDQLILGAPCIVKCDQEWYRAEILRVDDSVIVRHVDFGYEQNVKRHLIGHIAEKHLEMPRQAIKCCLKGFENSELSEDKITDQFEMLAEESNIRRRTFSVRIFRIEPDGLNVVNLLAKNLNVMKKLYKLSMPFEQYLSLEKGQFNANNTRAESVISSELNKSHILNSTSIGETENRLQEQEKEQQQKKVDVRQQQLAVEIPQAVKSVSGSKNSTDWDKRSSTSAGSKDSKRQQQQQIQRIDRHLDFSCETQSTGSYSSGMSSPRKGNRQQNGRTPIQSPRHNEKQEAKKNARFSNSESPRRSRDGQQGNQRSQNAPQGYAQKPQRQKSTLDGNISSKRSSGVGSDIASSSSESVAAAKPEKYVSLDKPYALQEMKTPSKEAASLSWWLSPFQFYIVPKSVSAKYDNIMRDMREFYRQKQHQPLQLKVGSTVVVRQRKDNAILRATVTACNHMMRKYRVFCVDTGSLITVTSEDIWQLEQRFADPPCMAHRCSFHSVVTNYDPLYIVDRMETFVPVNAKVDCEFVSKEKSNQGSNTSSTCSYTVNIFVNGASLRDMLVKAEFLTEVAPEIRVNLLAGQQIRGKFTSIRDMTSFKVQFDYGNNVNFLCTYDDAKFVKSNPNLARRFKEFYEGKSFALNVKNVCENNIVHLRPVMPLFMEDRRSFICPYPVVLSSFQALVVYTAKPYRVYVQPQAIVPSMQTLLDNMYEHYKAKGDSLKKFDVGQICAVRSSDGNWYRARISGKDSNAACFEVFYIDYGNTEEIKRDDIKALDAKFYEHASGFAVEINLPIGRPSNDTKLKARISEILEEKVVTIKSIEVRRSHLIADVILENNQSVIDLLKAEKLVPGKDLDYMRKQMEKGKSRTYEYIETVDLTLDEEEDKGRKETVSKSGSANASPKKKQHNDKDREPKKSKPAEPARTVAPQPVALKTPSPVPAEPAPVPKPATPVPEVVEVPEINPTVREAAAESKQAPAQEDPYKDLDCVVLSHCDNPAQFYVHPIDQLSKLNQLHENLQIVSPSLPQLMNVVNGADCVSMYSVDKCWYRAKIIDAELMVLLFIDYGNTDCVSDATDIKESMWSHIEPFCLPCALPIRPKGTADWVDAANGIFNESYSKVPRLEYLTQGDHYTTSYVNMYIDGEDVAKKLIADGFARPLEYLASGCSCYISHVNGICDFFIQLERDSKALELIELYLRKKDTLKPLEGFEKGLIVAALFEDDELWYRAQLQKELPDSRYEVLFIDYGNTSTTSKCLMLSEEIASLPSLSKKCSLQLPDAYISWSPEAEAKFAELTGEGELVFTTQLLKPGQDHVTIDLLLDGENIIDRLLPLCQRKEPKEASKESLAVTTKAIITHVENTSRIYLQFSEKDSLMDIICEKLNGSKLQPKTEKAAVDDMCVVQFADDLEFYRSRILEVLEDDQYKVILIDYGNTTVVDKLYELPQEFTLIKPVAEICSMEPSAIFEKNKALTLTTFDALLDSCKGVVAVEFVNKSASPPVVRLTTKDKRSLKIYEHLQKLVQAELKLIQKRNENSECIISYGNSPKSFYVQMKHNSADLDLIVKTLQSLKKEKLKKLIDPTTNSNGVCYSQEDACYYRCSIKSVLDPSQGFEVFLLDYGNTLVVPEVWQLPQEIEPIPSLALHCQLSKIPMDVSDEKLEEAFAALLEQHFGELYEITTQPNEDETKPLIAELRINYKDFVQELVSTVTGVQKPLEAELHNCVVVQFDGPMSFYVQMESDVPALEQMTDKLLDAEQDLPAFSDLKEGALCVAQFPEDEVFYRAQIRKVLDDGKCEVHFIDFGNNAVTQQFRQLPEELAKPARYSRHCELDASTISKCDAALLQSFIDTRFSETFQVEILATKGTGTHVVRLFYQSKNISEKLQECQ

How the values were obtained:
[1] = target: Myc-tagged eIF4A (Drosophila) (UniProt Q02748); assay: pull-down; purified Myc-eIF4A or Myc-GFP control bound to anti-c-Myc beads; purified HA-Tud added; conditions as for Aub-eIF4A; western blot with anti-HA; both purified
[2] = target: recombinant Tud with N-terminal His- and HA-tags (Drosophila) (UniProt P25823); assay: pull-down; HA-Tud bound to anti-HA beads; purified Myc-tagged eIF4A and eGFP control added; conditions as for Aub-eIF4A; both purified

| Molecule | binding [1] | binding [2] |
| --- | --- | --- |
| recombinant Tud with N-terminal His- and HA-tags (from UniProt P25823 1-2515) | binds |  |
| Myc-tagged eIF4A (enzyme, Drosophila, UniProt Q02748 1-403, looked up, eukaryotic translation initiation factor 4A (eIF4A), ATP-dependent RNA helicase, Drosophila; also called Myc-eIF4A; eukaryotic translation initiation factor 4A; source: S2 cells, purified (anti-c-Myc beads, c-Myc peptide elution)) MDDRNEIPQDGPASMEPEGVIESTWHEVYDNFDDMNLREELLRGIYGYGFEKPSAIQQRAIIPCVRGRDVIAQAQSGTGKTATFSIAILQQIDTSIRECQALILAPTRELATQIQRVVMALGEYMKVHSHACIGGTNVREDARILESGCHVVVGTPGRVYDMINRKVLRTQYIKLFVLDEADEMLSRGFKDQIQDVFKMLPPDVQVILLSATMPPDVLEVSRCFMRDPVSILVKKEELTLEGIKQFYVNVKQENWKLGTLCDLYDTLSITQSVIFCNTRRKVDQLTQEMSIHNFTVSAMHGDMEQRDREVIMKQFRSGSSRVLITTDLLARGIDVQQVSLVINYDLPSNRENYIHRIGRGGRFGRKGVAINFITDDDRRILKDIEQFYHTTIEEMPANIADLI |  | binds |
